Results on one molecule are retold here after patent publication US8076321B2, “Compositions for treatment of systemic mastocytosis” (priority 2005, dated 2011).

This experiment concerns Ton.Kit.wt cells (Ba/F3 with inducible wt KIT). The experiment in a line: cells. The following applies: Mus musculus, BaF3, 48 h, read-out: IC50, SCF-dependent growth of doxycycline-exposed Ton.Kit.wt cells.

For `Cc1ccc(NC(=O)c2ccc(CN3CCN(C)CC3)cc2)cc1Nc1nccc(-c2cccnc2)n1` [imatinib, reference compound], the IC50 lay within 3 to 30 nM.
